This is one part of the list. Further columns of the screen follow, without active or inactive calls. Compounds called inactive in the main read-out are mostly missing here. Words in brackets tell the shape of the fitted curve; partial curves, single points and poor fits give uncertain potencies.
Assay: qHTS Assay to Find Inhibitors of Chronic Active B-Cell Receptor Signaling
Conditions: ABC-DLBCL IkBa-CBG/CBR reporter, luminescence ratio (green luciferase fused to IkBa over red control in TMD8 lymphoma cells), 4 h
Procedure, shortened: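 TMD8 human ABC-DLBCL cells with doxycycline-inducible IκBα–green luciferase fusion and unfused red luciferase, in 0.5% FBS medium; compounds up to 46 uM, 4 h at 37C. Green/red luminescence ratio, filter-overlap corrected, fitted to concentration-response curves.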

[1] = measured here: CBR red luminescence, cell number
[2] = measured here: IkBa-CBG green luminescence

SMILES	AC50 [1]	AC50 [2]
OCCNc1nc2ccccc2nc1NCCO	3.98 µM [rising, full curve, poor fit]	–
Cc1cc(NC(=O)CCCC(=O)N(CC(=O)NC2CCCCC2)c2ccccc2)no1	11.2 µM [falling, partial curve, poor fit]	–
CC1(C)O[C@@H]2[C@H](O1)[C@@H](CO)O[C@H]2n1c(N2CCCCC2)nc2c(N)ncnc21	29.1 µM [rising, single point]	–
COc1ccc(CC(=O)NNc2ncnc3c2cnn3-c2ccccc2)cc1	16.4 µM [falling, single point]	–
CCOc1cc(N2CCOCC2)c(OCC)cc1NC(=O)CN1C(=O)N(C)C2(CCCCC2)C1=O	10.3 µM [rising, partial curve, poor fit]	–
COc1n[nH]c(C(=O)Nc2cc(Cl)ccc2Cl)c1[N+](=O)[O-]	5.62 µM [falling, single point]	–
Cc1ccc(-c2cnn(-c3cccc([N+](=O)[O-])c3)c2N)cc1	14.1 µM [falling, single point]	–
COC(=O)CCn1nnc(-c2ccc(C(C)C)cc2)n1	4.11 µM [falling, partial curve]	–
CCOc1ncccc1C(=O)Nc1ccc(C)c(S(=O)(=O)N2CCCCCC2)c1	0.116 µM [falling, full curve, poor fit]	–
CCCCOc1nc2c(c(=O)n(C)c(=O)n2C)n1C	2.24 µM [falling, partial curve, poor fit]	–
COc1ccc(CCNc2ncnc3c2nnn3C)cc1	25.1 µM [falling, partial curve, poor fit]	–
Cc1ccc(-c2csc(NC(=O)c3ccno3)n2)cc1	0.103 µM [rising, full curve, poor fit]	–
Cc1sc2nc(SCC(=O)N3CCN(CCO)CC3)n(-c3ccccc3)c(=O)c2c1C	3.26 µM [rising, full curve, poor fit]	–
N#CCC(=O)Nc1ccc(C(=O)OCc2ccccc2Oc2ccccc2)cc1	0.112 µM [falling, full curve, poor fit]	–
c1ccc(-c2nc(-c3ccco3)cs2)nc1	1.26 µM [rising, partial curve, poor fit]	–
CCOc1ccc(/C=C(\C#N)C(=O)Nc2ccccn2)cc1	14.1 µM [rising, partial curve, poor fit]	–
COc1ccccc1C(=O)N/N=C(\C)CC(=O)Nc1ccccn1	0.794 µM [falling, partial curve, poor fit]	–
Cc1onc(-c2ccccc2Cl)c1C(=O)NC(=S)Nc1ccc(C(C)(C)C)cc1	2.51 µM [rising, full curve, poor fit]	–
O=C(O)C1CCN(C(=O)COc2ccc3c4c(c(=O)oc3c2)CCC4)CC1	11.2 µM [falling, single point]	–
Cc1ccc(NC(=O)CSc2nc3ccccc3c3nc(CCc4c(C)n[nH]c4C)nn23)cc1F	0.00461 µM [rising, full curve, poor fit]	–
COC(=O)N1C(=O)[C@@](c2ccc(OC)cc2)(C(C)C)N1C(=O)OC	2 µM [falling, full curve, poor fit]	–

SMILES	AC50 [1]	AC50 [2]
CCn1c(COc2ccccc2)nnc1SCC(=O)CC(=O)Nc1ccccc1OC	11.2 µM [falling, partial curve]	–
O=C1CCC/C(=N/NC(=O)c2ccc(CN3c4cccc5cccc(c45)S3(=O)=O)cc2)C1	10.3 µM [rising, single point]	–
C/C(CC(=O)N(C(C)C)C(C)C)=N\NC(=O)c1ccccc1Br	23.1 µM [falling, partial curve]	–
COc1ccc(CNC(=O)COC(=O)c2ccco2)cc1	35.5 µM [rising, partial curve, poor fit]	–
O=C(CNC(=O)c1ccncc1)N/N=C/c1ccc(O)cc1O	10 µM [falling, partial curve, poor fit]	–
CCn1ccc(C(=O)Nc2ccc3c(c2)CCC3)n1	0.708 µM [rising, full curve, poor fit]	–
Cc1cccc(-n2ncc3c(Nc4ccc(F)cc4)ncnc32)c1	0.0259 µM [falling, full curve, poor fit]	–
C=CCNC(=S)N/N=C/c1ccc(-c2ccc(OC)cc2)o1	35.5 µM [falling, single point]	5.62 µM [falling, single point]
S=C(NC1CCCC1)N1CCN(c2ccccn2)CC1	14.6 µM [rising, single point]	–
CCOC(=O)N1CCN(C(=O)/C(=C/c2cccs2)NC(=O)c2cccs2)CC1	17.8 µM [rising, partial curve, poor fit]	–
COc1cc2cc(CN(CCO)S(=O)(=O)c3ccccc3Cl)c(=O)[nH]c2cc1OC	2.24 µM [rising, full curve, poor fit]	–
COc1cccc(C2NC(CC(C)C)(C(=O)O)C3C(=O)N(Cc4ccccc4)C(=O)C23)c1O (stereo unspecified)	23.1 µM [rising, single point]	–
Cc1ccc(Sc2cc(C)nc(-c3ccccn3)n2)cc1	6.31 µM [rising, single point]	–
O=C(NCc1ccc(Cl)cc1)C(=O)c1cn(CC(=O)N2CCOCC2)c2ccccc12	1 µM [falling, full curve]	–
COc1cccc(NC(=O)c2ccc(-n3cnnn3)cc2)c1	5.62 µM [falling, partial curve, poor fit]	–
CCOc1ccc(C(=O)OCC(=O)Nc2cccc(S(=O)(=O)N3CCCC3)c2)cc1	–	32.6 µM [falling, partial curve, poor fit]
Cc1ccc(C(=O)COC(=O)C2C3C=CC(C3)C2C(=O)OCC(=O)c2ccc(C)c(C)c2)cc1C (stereo unspecified)	2.51 µM [falling, full curve]	–
Cc1ccc(C)c(NC(=O)C2COc3ccccc3O2)c1 (stereo unspecified)	8.91 µM [rising, partial curve, poor fit]	–
Cc1ccc(Nc2nc(N)c3ccccc3n2)cc1C	17.8 µM [falling, partial curve, poor fit]	31.6 µM [falling, single point]
N/C(=N\NC(=O)c1cccc(F)c1)c1cc2ccccc2oc1=O	20 µM [falling, partial curve, poor fit]	–
COc1ccc(CN2CCN(CCc3ccccc3)C(CCO)C2)cc1Cn1cncn1 (stereo unspecified)	0.282 µM [rising, full curve, poor fit]	–

Four consecutive records already listed, quoted:
SMILES	AC50 [1]	AC50 [2]
Cc1ccc(C(=O)COC(=O)C2C3C=CC(C3)C2C(=O)OCC(=O)c2ccc(C)c(C)c2)cc1C (stereo unspecified)	2.51 µM [falling, full curve]	–
Cc1ccc(C)c(NC(=O)C2COc3ccccc3O2)c1 (stereo unspecified)	8.91 µM [rising, partial curve, poor fit]	–
Cc1ccc(Nc2nc(N)c3ccccc3n2)cc1C	17.8 µM [falling, partial curve, poor fit]	31.6 µM [falling, single point]
N/C(=N\NC(=O)c1cccc(F)c1)c1cc2ccccc2oc1=O	20 µM [falling, partial curve, poor fit]	–

Following part

SMILES	AC50 [1]	AC50 [2]
Cc1ccc(NC(=O)CC(=O)c2ccccc2)cc1C	14.1 µM [falling, single point]	–
Cc1ccc(C(C(=O)NC2CCCCC2)N2CCCC2)cc1 (stereo unspecified)	20.6 µM [falling, single point]	–
O=C(CCC1CCCCC1)Nc1nccs1	14.1 µM [falling, single point]	–
Nc1nc2ccc(C(=O)NCCOC(=O)C3CCCCC3)cc2s1	0.251 µM [rising, full curve, poor fit]	–
Cc1ccc2[nH]c(=O)c(CN(CCc3ccccc3)C(c3nnnn3Cc3ccco3)C(C)C)cc2c1 (stereo unspecified)	7.94 µM [rising, single point]	–
CCOc1ccc(NC(=O)CCNS(=O)(=O)c2cccs2)cc1	2.31 µM [rising, single point]	–
CCCc1nc2ccccc2c(=O)n1/N=C/c1ccc(O)c(O)c1	7.94 µM [falling, partial curve]	–
COc1cccc2cc(C(=O)Nc3cc(C)cc(C)c3)/c(=N/NS(=O)(=O)c3ccccc3)oc12	0.0891 µM [falling, full curve, poor fit]	–
COC(=O)c1ccc(-c2ccc(C(c3c(C)[nH][nH]c3=O)c3c(C)[nH][nH]c3=O)o2)cc1	5.01 µM [falling, partial curve]	–
CCN(CC)C(=O)CCCSc1nnc(Nc2ccccc2F)s1	4.47 µM [falling, partial curve]	–
Cc1ccc(S(=O)(=O)Nc2ccc(NC(=O)c3cccs3)cc2)cc1	20 µM [rising, partial curve, poor fit]	–
CCOC(=O)CC(=O)COc1nc2cc3c(nc2o1)CCCC3	10 µM [falling, partial curve, poor fit]	–
N/C(=N\OC(=O)c1ccccc1)c1ccccn1	1.58 µM [falling, partial curve]	–
COc1cccc(C2/C(=C(/O)c3cnn(-c4ccccc4)c3C)C(=O)C(=O)N2CCN(C)C)c1OC (stereo unspecified)	6.31 µM [rising, single point]	–
O=C(/C=C/c1ccc(Br)cc1)NCc1cccs1	18.4 µM [falling, single point]	–
COc1ccc(-n2c(C)cc(C(=O)CN3C(=O)NC4(CCc5ccccc54)C3=O)c2C)cc1 (stereo unspecified)	25.9 µM [falling, partial curve, poor fit]	–
Cc1ccc(COC(=O)Cc2coc3cc(O)ccc23)cc1	12.6 µM [rising, partial curve, poor fit]	–
NCc1c(O)ccc2ccccc12	7.94 µM [falling, partial curve, poor fit]	–
Cc1onc(-c2ccccc2)c1C(=O)N1CCN(C)CC1	25.9 µM [rising, single point]	–
Nc1ccc2c(c1)C(=O)C(=O)c1ccccc1-2	1.3 µM [falling, full curve, poor fit]	3.26 µM [rising, partial curve, poor fit]
O=C(N/N=C/c1ccc(Br)s1)c1ccc([N+](=O)[O-])cc1	0.794 µM [rising, full curve, poor fit]	–

Reference: PubChem BioAssay AID493014 (National Center for Advancing Translational Sciences (NCATS), 2011)
